Measurements reported in PubChem BioAssay AID504791 (Drosophila RNAi Screening Center, 2011).
Assay: 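Factors in Argonaute-based small RNA production and activity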 (primary screen). System: Drosophila S2-derived reporter cells. Reagents: long dsRNA against Drosophila genes, about 150-250 ng dsRNA per well (siRNA assay); about 80-120 ng (miRNA assay). Time to read-out: about 5 days (siRNA assay); about 4 days (miRNA assay). Challenge: copper sulfate induction of reporters: 25 µM (siRNA assay); 200 mM stated (miRNA assay), 1-2 days before reading. Read-out: 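Dual luciferase assay: Renilla to firefly signal ratio in each well, scaled to the mean ratio of its plate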. Units: stable assay Renilla, run 1 in luminescence; stable assay firefly, run 1 in luminescence. Rule for the call: 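First-pass picks had plate-scaled ratios over 1.5 for the siRNA assay, over 1.6 for the miRNA assay, or under 0.6; two distinct dsRNAs had to score alike on retest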.
The screen tested about 23,000 reagents; this is a random part of those with a known target gene and a result. In the full data, 199 (0.86%) were called active. 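Plate-scaled ratios behind the calls are not deposited; printed light signals are raw; many rows marked increased or decreased are still called inactive.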 Not given: the direction of the score.

How did the screen score Spec2 (retired record) [DRSC12258]?
stable assay Renilla, run 1: 7030; stable assay firefly, run 1: 5.46e5; Call: inactive

With Spec2 (retired record) [DRSC22886], how do the results read?
stable assay Renilla, run 1: 4043; stable assay firefly, run 1: 3.71e5; Call: inactive

For TAF1B [DRSC16001], how do the results read?
stable assay Renilla, run 1: 7443; stable assay firefly, run 1: 3.61e5; Call: inactive

For ND4 (retired record) [DRSC21269], what does the deposit list?
stable assay Renilla, run 1: 5648; stable assay firefly, run 1: 4.12e5; Call: inactive

With Pdcd4 [DRSC19360], what was measured?
stable assay Renilla, run 1: 5638; stable assay firefly, run 1: 5.73e5; Call: inactive

With Rpn5 [DRSC12367], how do the results read?
stable assay Renilla, run 1: 5634; stable assay firefly, run 1: 3.22e5; Call: inactive

With CG31752 [DRSC22599], what was measured?
stable assay Renilla, run 1: 3875; stable assay firefly, run 1: 3.04e5; Call: inactive

With sr [DRSC13284], what does the deposit list?
stable assay Renilla, run 1: 4586; stable assay firefly, run 1: 4.35e5; Call: inactive

How did the screen score sr [DRSC17067]?
stable assay Renilla, run 1: 5159; stable assay firefly, run 1: 2.46e5; Call: inactive

What did the screen give for CG33922 [DRSC00050]?
stable assay Renilla, run 1: 5339; stable assay firefly, run 1: 4.02e5; Call: inactive

What is on record for PpD3 [DRSC16796]?
stable assay Renilla, run 1: 8143; stable assay firefly, run 1: 3.60e5; Call: inactive

What did the screen give for Arpc5 [DRSC00730]?
stable assay Renilla, run 1: 6260; stable assay firefly, run 1: 3.16e5; Call: inactive

2 entries already listed, sorted by “stable assay Renilla, run 1”, low to high:
CG31752 [DRSC22599] → stable assay Renilla, run 1: 3875; stable assay firefly, run 1: 3.04e5; Call: inactive
Rpn5 [DRSC12367] → stable assay Renilla, run 1: 5634; stable assay firefly, run 1: 3.22e5; Call: inactive
